In publication PMC7862700 one finds binding signal data, which are given here for 30 sequences.

The chains behind the UniProt entries cited, without tags or fusion partners. Where a name states a change or a piece, a line headed by the entry shows the natural chain unless it says otherwise.
UniProt Q01892: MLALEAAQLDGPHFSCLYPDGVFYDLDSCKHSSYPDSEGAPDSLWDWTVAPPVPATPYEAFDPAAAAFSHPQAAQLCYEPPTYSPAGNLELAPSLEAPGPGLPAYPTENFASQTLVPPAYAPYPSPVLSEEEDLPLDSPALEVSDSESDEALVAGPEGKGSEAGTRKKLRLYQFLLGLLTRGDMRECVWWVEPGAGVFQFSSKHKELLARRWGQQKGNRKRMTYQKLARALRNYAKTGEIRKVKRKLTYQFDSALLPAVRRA
UniProt P41161: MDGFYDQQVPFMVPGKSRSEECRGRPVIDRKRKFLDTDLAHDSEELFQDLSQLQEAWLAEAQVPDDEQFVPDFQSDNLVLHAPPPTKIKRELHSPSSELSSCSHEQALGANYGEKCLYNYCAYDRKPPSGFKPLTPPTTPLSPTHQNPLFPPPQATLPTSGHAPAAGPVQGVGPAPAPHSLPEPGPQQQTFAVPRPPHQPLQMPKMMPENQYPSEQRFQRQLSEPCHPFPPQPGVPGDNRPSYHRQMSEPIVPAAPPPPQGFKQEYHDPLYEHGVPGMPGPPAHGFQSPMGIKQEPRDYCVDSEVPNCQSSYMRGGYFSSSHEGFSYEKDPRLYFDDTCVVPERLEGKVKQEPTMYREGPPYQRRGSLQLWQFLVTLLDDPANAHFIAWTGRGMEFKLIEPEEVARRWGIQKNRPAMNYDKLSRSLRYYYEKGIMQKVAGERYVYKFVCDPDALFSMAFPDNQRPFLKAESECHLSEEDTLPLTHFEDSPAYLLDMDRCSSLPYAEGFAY
UniProt Q99607: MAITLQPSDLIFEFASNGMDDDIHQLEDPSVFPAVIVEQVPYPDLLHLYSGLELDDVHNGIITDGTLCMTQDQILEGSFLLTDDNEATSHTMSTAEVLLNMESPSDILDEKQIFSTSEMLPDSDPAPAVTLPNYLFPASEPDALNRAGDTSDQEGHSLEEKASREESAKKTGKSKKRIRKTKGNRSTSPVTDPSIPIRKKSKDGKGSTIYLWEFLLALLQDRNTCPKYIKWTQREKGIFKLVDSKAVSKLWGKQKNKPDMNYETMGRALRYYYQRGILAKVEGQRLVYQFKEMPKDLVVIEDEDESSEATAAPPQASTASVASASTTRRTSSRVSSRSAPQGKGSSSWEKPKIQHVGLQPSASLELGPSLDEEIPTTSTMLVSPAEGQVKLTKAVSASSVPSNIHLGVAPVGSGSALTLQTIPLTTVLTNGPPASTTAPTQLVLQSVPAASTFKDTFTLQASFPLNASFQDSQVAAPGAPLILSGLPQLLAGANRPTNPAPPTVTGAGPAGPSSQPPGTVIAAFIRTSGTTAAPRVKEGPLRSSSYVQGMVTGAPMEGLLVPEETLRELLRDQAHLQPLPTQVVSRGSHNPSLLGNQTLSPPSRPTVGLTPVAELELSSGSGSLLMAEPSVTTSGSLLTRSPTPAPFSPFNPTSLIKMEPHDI

The entries are a selection whose mix differs from that of the whole data set. At the low end of the ranking the order means little.

Common to all, as to assay: DAPPL (digital affinity profiling via proximity ligation, sequencing)
Holding throughout (conditions): 10 mM Tris-HCl pH 7.5, 50 mM NaCl, 1 mM DTT, 4% glycerol, room temperature, 30 min; GST-TFs on glutathione beads, 16-mer random dsDNA library, 0.1% …; high values mean tight binding; double strand, one strand shown; scale: fold enrichment (6-mer frequency, TF over GST control)

For assay [1], the target named is T1, FLI1 (UniProt Q01543).
T1 sequence: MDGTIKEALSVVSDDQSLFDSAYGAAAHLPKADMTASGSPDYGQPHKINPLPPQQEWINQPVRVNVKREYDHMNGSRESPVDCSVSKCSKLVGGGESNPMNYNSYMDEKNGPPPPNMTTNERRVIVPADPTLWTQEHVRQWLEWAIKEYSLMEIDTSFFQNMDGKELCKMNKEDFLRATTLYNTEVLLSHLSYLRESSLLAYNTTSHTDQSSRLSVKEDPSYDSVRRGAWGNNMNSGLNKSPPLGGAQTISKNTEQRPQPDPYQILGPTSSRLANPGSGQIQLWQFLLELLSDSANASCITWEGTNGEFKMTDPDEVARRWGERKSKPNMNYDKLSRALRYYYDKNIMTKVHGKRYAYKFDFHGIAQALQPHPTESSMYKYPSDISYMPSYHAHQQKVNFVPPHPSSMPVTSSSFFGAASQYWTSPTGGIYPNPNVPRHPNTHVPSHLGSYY

The target of assay [2] is T2, EHF (UniProt Q9NZC4).
T2 sequence: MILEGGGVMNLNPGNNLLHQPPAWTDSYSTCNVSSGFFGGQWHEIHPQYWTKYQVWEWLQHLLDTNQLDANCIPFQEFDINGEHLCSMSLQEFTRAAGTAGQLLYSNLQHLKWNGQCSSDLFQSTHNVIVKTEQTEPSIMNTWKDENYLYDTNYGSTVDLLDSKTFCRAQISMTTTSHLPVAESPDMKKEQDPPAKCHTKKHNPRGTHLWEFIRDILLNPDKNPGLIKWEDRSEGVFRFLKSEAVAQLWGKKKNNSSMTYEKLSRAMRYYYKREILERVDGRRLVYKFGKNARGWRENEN

Assay [3] addresses SPIB (UniProt Q01892).
The target in assay [4] is ETV5 (UniProt P41161).
The target in assay [5] is ELF4 (UniProt Q99607).
Assay [6] has as its target T3, ETV2 (UniProt O00321).
T3 sequence: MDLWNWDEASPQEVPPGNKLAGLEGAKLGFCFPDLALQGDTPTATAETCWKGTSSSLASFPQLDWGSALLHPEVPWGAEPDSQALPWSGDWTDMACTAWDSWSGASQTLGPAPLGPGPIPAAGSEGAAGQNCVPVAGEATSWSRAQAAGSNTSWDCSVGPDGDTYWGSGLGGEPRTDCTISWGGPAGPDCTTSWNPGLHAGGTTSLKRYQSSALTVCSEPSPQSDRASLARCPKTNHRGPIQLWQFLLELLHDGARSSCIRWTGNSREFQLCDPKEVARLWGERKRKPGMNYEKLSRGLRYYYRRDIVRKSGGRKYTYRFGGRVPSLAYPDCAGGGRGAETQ

Assay [7] concerns the target T4, ETV3L (UniProt Q6ZN32).
T4 sequence: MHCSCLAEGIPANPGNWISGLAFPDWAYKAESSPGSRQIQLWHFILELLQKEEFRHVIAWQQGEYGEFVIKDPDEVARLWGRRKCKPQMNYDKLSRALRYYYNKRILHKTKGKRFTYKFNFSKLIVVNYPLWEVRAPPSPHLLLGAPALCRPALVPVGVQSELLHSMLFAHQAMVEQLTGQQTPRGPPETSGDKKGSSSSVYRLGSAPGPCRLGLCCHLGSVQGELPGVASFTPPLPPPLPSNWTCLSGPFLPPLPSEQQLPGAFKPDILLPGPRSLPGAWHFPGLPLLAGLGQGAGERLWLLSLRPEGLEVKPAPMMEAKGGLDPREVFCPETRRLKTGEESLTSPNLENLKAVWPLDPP

For CGAGGC, the binding signal was determined as 0.687 in assay [1]; 0.631 in assay [2]; 0.682 in assay [3]; 0.626 in assay [4]; 0.718 in assay [5]; 0.653 in assay [6]. The binding signal in assay [7] stood at 0.621.

With CGGCGA, the binding signal in assay [1] was 0.688; in assay [2], 0.711; in assay [3], 0.748; in assay [4], 0.715; in assay [5] it was 0.819; in assay [6] it was 0.861. Further, the binding signal in assay [7] is 0.736.

As to GGGGGC, the binding signal in assay [1] amounted to 0.594; in assay [2], 0.626; in assay [3], 0.637; in assay [4], 0.621; in assay [5], 0.637; in assay [6], 0.701. In assay [7], this sequence showed a binding signal of 0.693.

As for GACCGT, the binding signal in assay [1] came out at 0.487; in assay [2], 0.4; in assay [3] it was 0.427; in assay [4], 0.416; in assay [5], 0.444; in assay [6], 0.483. The binding signal in assay [7] was found to be 0.45.

Regarding GGCCAG, the binding signal was found to be 0.463 in assay [1]; 0.494 in assay [2]; 0.448 in assay [3]; 0.425 in assay [4]; 0.471 in assay [5]; 0.476 in assay [6]. Also, in assay [7], the binding signal stood at 0.472.

For the sequence AGACCG, the binding signal in assay [1] worked out at 0.472; in assay [2], 0.455; in assay [3], 0.443; in assay [4], 0.494; in assay [5] it was 0.466; in assay [6], 0.504. For the same sequence, the binding signal in assay [7] worked out at 0.467.

In the case of ATCAGT, the binding signal in assay [1] came out at 0.834; in assay [2], 0.807; in assay [3] it was 0.851; in assay [4], 0.84; in assay [5], 0.824; in assay [6] it was 0.804. The binding signal in assay [7] was 0.85.

As for CGGCCA, the binding signal in assay [1] amounted to 0.804; in assay [2] it was 0.774; in assay [3], 0.793; in assay [4], 0.816; in assay [5], 0.91; in assay [6] it was 0.774. The binding signal in assay [7] stood at 0.848.

As for AGGGCC, the binding signal in assay [1] was determined as 0.923; in assay [2], 0.986; in assay [3], 0.877; in assay [4], 0.935; in assay [5], 0.945; in assay [6] it was 0.957. Also, the binding signal in assay [7] is 0.856.

For GCACGG, the binding signal in assay [1] is 0.847; in assay [2] it was 0.823; in assay [3], 0.862; in assay [4], 0.898; in assay [5] it was 0.837; in assay [6] it was 0.786. Also, the binding signal in assay [7] turned out to be 0.818.

CCGGGA: the binding signal in assay [1] came to 0.513; in assay [2], 0.522; in assay [3], 0.508; in assay [4], 0.5; in assay [5] it was 0.476; in assay [6], 0.443. Further, the binding signal in assay [7] stood at 0.467.

For the sequence ACTGTG, the binding signal in assay [1] was found to be 0.471; in assay [2], 0.479; in assay [3], 0.484; in assay [4], 0.498; in assay [5], 0.489; in assay [6], 0.564. The binding signal in assay [7] was determined as 0.567.

As to GATGAG, the binding signal in assay [1] was 0.763; in assay [2], 0.903; in assay [3] it was 0.828; in assay [4], 0.913; in assay [5] it was 0.837; in assay [6] it was 0.756. The sequence also showed a binding signal in assay [7] of 0.809.

Regarding CCAGAC, the binding signal in assay [1] turned out to be 0.712; in assay [2], 0.672; in assay [3] it was 0.636; in assay [4], 0.698; in assay [5] it was 0.721; in assay [6], 0.68. In addition, in assay [7], the binding signal is 0.691.

On to GGGATG, for which the binding signal in assay [1] amounted to 0.881; in assay [2] it was 0.959; in assay [3], 0.946; in assay [4], 0.888; in assay [5], 0.895; in assay [6], 0.833. The same sequence gave a binding signal in assay [7] of 0.906.

As for GATGTG, the binding signal in assay [1] was found to be 0.913; in assay [2] it was 0.875; in assay [3], 0.914; in assay [4], 0.949; in assay [5] it was 0.851; in assay [6], 0.836. In assay [7], this sequence showed a binding signal of 0.956.

CAAAGG: the binding signal in assay [1] came out at 0.838; in assay [2] it was 0.832; in assay [3] it was 0.793; in assay [4], 0.83; in assay [5] it was 0.872; in assay [6], 0.974. The binding signal in assay [7] was found to be 0.807.

CGCGGA: the binding signal in assay [1] stood at 0.937; in assay [2] it was 0.928; in assay [3], 0.972; in assay [4] it was 0.956; in assay [5], 0.952; in assay [6], 0.931. Besides, the binding signal in assay [7] was found to be 0.945.

Regarding ACAGTC, the binding signal turned out to be 0.439 in assay [1]; 0.431 in assay [2]; 0.442 in assay [3]; 0.419 in assay [4]; 0.411 in assay [5]; 0.454 in assay [6]. In assay [7], the binding signal was found to be 0.425.

CCCGTG: the binding signal came to 0.527 in assay [1]; 0.529 in assay [2]; 0.555 in assay [3]; 0.549 in assay [4]; 0.563 in assay [5]; 0.536 in assay [6]. Moreover, the binding signal in assay [7] came out at 0.522.

As to GAGGCG, the binding signal in assay [1] was 0.444; in assay [2], 0.367; in assay [3] it was 0.411; in assay [4], 0.381; in assay [5], 0.382; in assay [6], 0.403. This sequence also displayed a binding signal in assay [7] of 0.389.

As to GATTGA, the binding signal was 0.976 in assay [1]; 0.856 in assay [2]; 0.925 in assay [3]; 0.877 in assay [4]; 0.989 in assay [5]; 0.846 in assay [6]. This sequence showed a binding signal in assay [7] of 0.941.

Consider AGAGCG, for which the binding signal turned out to be 0.445 in assay [1]; 0.439 in assay [2]; 0.412 in assay [3]; 0.43 in assay [4]; 0.459 in assay [5]; 0.421 in assay [6]. Further, the binding signal in assay [7] was determined as 0.454.

Turning to CCTAGT, the binding signal in assay [1] came to 0.945; in assay [2], 0.919; in assay [3], 0.992; in assay [4] it was 0.909; in assay [5], 0.929; in assay [6], 0.909. In assay [7], this sequence yielded a binding signal of 0.883.

As for ACGGTC, the binding signal in assay [1] turned out to be 0.735; in assay [2] it was 0.785; in assay [3], 0.864; in assay [4], 0.756; in assay [5], 0.811; in assay [6], 0.804. In addition, the binding signal in assay [7] was determined as 0.83.

Turning to ATCGAG, the binding signal in assay [1] was 0.87; in assay [2], 0.832; in assay [3], 0.832; in assay [4], 0.855; in assay [5] it was 0.906; in assay [6] it was 0.784. The binding signal in assay [7] stood at 0.942.

On to GGCAGT, for which the binding signal turned out to be 0.564 in assay [1]; 0.513 in assay [2]; 0.518 in assay [3]; 0.503 in assay [4]; 0.517 in assay [5]; 0.538 in assay [6]. Moreover, the binding signal in assay [7] was found to be 0.487.

Consider AGCCGT, for which the binding signal turned out to be 0.499 in assay [1]; 0.496 in assay [2]; 0.465 in assay [3]; 0.451 in assay [4]; 0.477 in assay [5]; 0.494 in assay [6]. The binding signal in assay [7] was determined as 0.491.

CGAGAG: the binding signal in assay [1] was 0.441; in assay [2] it was 0.406; in assay [3], 0.413; in assay [4], 0.408; in assay [5] it was 0.418; in assay [6] it was 0.384. In addition, the binding signal in assay [7] was found to be 0.407.

For the sequence AGACCC, the binding signal in assay [1] worked out at 0.71; in assay [2], 0.7; in assay [3] it was 0.716; in assay [4], 0.691; in assay [5], 0.723; in assay [6] it was 0.758. This sequence returned a binding signal in assay [7] of 0.685.
